This is a selection; strong and weak results do not stand in their true shares. For part of these data: At the low end of the ranking the order means little. The list shows a part of the results. For part of these data: The exact form of the protein is not confirmed.

Sequences of proteins named here, by UniProt entry; tags and fusion partners are left off. A change or cut given only in a name is not applied to a line headed by its entry.
UniProt Q00613: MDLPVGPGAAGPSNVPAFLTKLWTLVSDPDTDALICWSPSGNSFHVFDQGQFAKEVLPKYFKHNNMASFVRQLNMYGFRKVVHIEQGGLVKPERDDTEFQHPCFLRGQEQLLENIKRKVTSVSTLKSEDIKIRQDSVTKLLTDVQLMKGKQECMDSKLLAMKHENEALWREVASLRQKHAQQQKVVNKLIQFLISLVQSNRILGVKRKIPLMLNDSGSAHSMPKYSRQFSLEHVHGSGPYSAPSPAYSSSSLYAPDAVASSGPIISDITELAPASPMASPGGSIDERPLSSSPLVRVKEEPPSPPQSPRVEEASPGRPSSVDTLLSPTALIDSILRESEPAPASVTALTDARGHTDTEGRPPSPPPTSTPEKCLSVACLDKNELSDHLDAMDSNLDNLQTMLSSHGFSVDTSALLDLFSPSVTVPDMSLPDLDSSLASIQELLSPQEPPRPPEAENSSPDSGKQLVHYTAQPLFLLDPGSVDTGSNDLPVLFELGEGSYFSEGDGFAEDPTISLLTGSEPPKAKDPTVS

One assay concerns the target HSF1 (UniProt Q00613). In words: DAPPL (digital affinity profiling via proximity ligation, sequencing). As to conditions: 10 mM Tris-HCl pH 7.5, 50 mM NaCl, 1 mM DTT, 4% glycerol, room temperature, 30 min; GST-TFs on glutathione beads, 16-mer random dsDNA library, 0.1% …; high values mean tight binding; double strand, one strand shown; scale: fold enrichment (6-mer frequency, TF over GST control).

A further assay concerns the target T1, ELF2 (UniProt Q15723).
T1 sequence: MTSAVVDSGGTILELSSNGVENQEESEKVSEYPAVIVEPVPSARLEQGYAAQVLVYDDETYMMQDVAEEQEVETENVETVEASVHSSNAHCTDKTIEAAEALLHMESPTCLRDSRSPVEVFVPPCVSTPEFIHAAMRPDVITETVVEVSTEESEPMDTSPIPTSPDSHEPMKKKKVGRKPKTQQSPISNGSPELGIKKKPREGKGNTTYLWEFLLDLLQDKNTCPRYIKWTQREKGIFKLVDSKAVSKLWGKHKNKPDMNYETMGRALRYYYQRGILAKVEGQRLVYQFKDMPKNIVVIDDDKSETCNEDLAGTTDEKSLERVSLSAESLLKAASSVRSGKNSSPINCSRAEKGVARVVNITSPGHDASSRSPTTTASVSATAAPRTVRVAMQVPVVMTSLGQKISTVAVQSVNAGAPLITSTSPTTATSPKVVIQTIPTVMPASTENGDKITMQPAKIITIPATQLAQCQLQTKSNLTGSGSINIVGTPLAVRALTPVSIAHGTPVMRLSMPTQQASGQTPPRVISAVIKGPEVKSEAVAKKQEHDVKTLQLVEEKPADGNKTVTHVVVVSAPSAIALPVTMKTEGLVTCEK
The description is as above. Conditions: 10 mM Tris-HCl pH 7.5, 50 mM NaCl, 1 mM DTT, 4% glycerol, room temperature, 30 min; GST-TFs on glutathione beads, 16-mer random dsDNA library, 0.1% …; high values mean tight binding; double strand, one strand shown; scale: fold enrichment (6-mer frequency, TF over GST control).

TCGGGG: the figures for the binding signal in the assay with HSF1 and with ELF2 were 0.39 and 0.377, respectively.
CAGCCA: the binding signal with HSF1 turned out to be 0.709; in the assay with ELF2, 0.787.
For GTGACG the same measures were 0.508 and 0.64.
In the case of CACAGA, the binding signal with HSF1 was 0.889; with ELF2, 0.811.
As for GGGAAC, the figures for the binding signal with HSF1 and with ELF2 were 0.702 and 0.653, respectively.
For GTAGGC the same measures were 0.599 and 0.696.
As for GGGGAA, the binding signal with HSF1 was determined as 0.657; in the assay with ELF2, 0.718.
Taken in the same sequence, the figures for GTCGTC were 0.583 and 0.728.
Take TCGTGC: the figures for the binding signal with HSF1 and with ELF2 were 0.701 and 0.749, respectively.
Take CGGCGC: the results for the binding signal with HSF1 and with ELF2 were 0.531 and 0.6, respectively.
Taken in the same sequence, the figures for CGGGCC were 0.552 and 0.743.
With CGTGCC, the binding signal with HSF1 is 0.651; in the assay with ELF2, 0.801.
Turning to AGGCGC, the values for the binding signal with HSF1 and in the assay with ELF2 were 0.511 and 0.555, respectively.
Regarding GACGTA, the figures for the binding signal with HSF1 and with ELF2 were 0.631 and 0.723, respectively.
Taken in the same sequence, the figures for GGCCCG were 0.603 and 0.752.
For GGACGT the same measures were 0.398 and 0.632.
Take TGGGGG: the binding signal amounted to 0.616 in the assay with HSF1 and 0.714 in the assay with ELF2.
With GACAGG, the binding signal with HSF1 stood at 0.427; with ELF2, 0.571.
For GCGGAT the same measures were 0.819 and 0.992.
Taken in the same sequence, the figures for TGGAGG were 0.451 and 0.492.
Taken in the same sequence, the figures for GCTGGA were 1.19 and 0.779.
With ACCGTA, the binding signal in the assay with HSF1 came out at 0.785; with ELF2 it was 0.831.
In the case of GCATTG, the binding signal stood at 0.667 with HSF1 and 0.796 in the assay with ELF2.
For CGAGCG the same measures were 0.824 and 0.862.
Taken in the same sequence, the figures for GACTAA were 1.13 and 0.866.
As for CCCGAG, the values for the binding signal with HSF1 and with ELF2 were 0.954 and 0.771, respectively.
For CGTGTT the same measures were 0.711 and 0.835.
For the sequence TGAGCC, the figures for the binding signal in the assay with HSF1 and with ELF2 were 0.806 and 0.771, respectively.
For GCCCGT the same measures were 0.562 and 0.631.
For the sequence GGCGCA, the binding signal stood at 0.47 in the assay with HSF1 and 0.579 with ELF2.
For GAGTCA the same measures were 0.255 and 0.272.
Taken in the same sequence, the figures for GATCGC were 0.835 and 0.869.
Taken in the same sequence, the figures for GGTACG were 0.698 and 0.819.
Consider AGAGTG, for which the binding signal was determined as 0.621 in the assay with HSF1 and 0.61 with ELF2.
For CCGTGT the same measures were 0.376 and 0.571.
With TCAGCG, the values for the binding signal with HSF1 and with ELF2 were 0.655 and 0.787, respectively.
Take ATGTCG: the figures for the binding signal with HSF1 and with ELF2 were 0.525 and 0.616, respectively.
As for AGGTAG, the binding signal with HSF1 was determined as 0.585; with ELF2 it was 0.665.
Consider CGCCAG, for which the values for the binding signal with HSF1 and with ELF2 were 0.646 and 0.662, respectively.
Taken in the same sequence, the figures for GGCTGA were 0.746 and 0.751.
Taken in the same sequence, the figures for AACCGT were 0.49 and 0.494.
Taken in the same sequence, the figures for CCCGGG were 0.66 and 0.772.
As for GGGATG, the binding signal came to 0.782 with HSF1 and 0.922 with ELF2.
With ACGCAG, the binding signal was determined as 0.687 with HSF1 and 0.774 in the assay with ELF2.
In the case of AGGAGG, the figures for the binding signal with HSF1 and with ELF2 were 0.216 and 0.212, respectively.
For CACGAG the same measures were 0.894 and 0.811.
For GAGACG the same measures were 0.292 and 0.309.
Taken in the same sequence, the figures for AGAGTA were 0.799 and 0.762.
For CGGTGC, the binding signal in the assay with HSF1 came to 0.514; with ELF2, 0.7.
Consider ACGTGG, for which the binding signal with HSF1 is 0.55; in the assay with ELF2 it was 0.567.
Taken in the same sequence, the figures for GTGGTG were 0.62 and 0.865.
Taken in the same sequence, the figures for GACAAG were 0.691 and 0.743.
With GTTGAG, the results for the binding signal in the assay with HSF1 and in the assay with ELF2 were 0.614 and 0.633, respectively.
On to CGTCGT, for which the binding signal amounted to 0.696 with HSF1 and 0.814 in the assay with ELF2.
Regarding GTAGGG, the binding signal was 0.594 with HSF1 and 0.739 with ELF2.
For CAGTTG the same measures were 0.436 and 0.466.
For CAGCGA, the binding signal with HSF1 is 0.832; in the assay with ELF2, 0.808.
On to ACGGGG, for which the results for the binding signal with HSF1 and with ELF2 were 0.606 and 0.642, respectively.
As for AAGGAG, the binding signal with HSF1 was found to be 0.318; in the assay with ELF2, 0.343.
Regarding AGCGGG, the values for the binding signal with HSF1 and in the assay with ELF2 were 0.421 and 0.483, respectively.

These data come from paper PMC7862700.
